Measured values published in publication PMC10363981 (Frontiers in Pharmacology, 2023).

Assays:
[1] = general procedure: Fmoc solid-phase peptide synthesis; Fmoc-Gly-Wang resin; COMU, DIPEA; settings: whole synthesis
[2] = general procedure: Fmoc solid-phase peptide synthesis; Fmoc-Gly preloaded Wang resin (loading 0.4–0.8 mmol/g); COMU, DIPEA; settings: late stage modification step

| Substance | isolated yield [1] [% yield] | step yield [2] [% yield] |
| --- | --- | --- |
| Fmoc-GPLG-OH | 99 |  |
| PEPTIDE1{G.P.L.G.[PABC-MMAE]}$$$$V2.0 |  | 61 |

For some assays here: Some peptides are written in HELM: one residue between dots, names in brackets for other building blocks, links after the first $. The star is where a group is joined. Fmoc = O=C(OCC1c2ccccc2-c2ccccc21)*
